Assay results from paper doi:10.1101/2025.04.28.650916.
These are yes or no findings as the source states them, for the method shown.

Molecular target: T1, Glycine-Rich RNA-binding Protein 7 (GRP7), recombinant full-length (Arabidopsis thaliana), Q03250
T1 chain: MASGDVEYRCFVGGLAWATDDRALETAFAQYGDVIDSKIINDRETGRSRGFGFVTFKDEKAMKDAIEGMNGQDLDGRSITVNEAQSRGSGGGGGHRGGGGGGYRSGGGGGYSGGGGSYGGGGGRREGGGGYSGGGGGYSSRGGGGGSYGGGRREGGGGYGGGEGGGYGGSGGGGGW
Test: SEC
Conditions: remark: other sources report otherwise

binding: no binding
B1: Glycine-Rich RNA-binding Protein 7 (GRP7), recombinant full-length, Q03250 1-176 (protein)
chain: MASGDVEYRCFVGGLAWATDDRALETAFAQYGDVIDSKIINDRETGRSRGFGFVTFKDEKAMKDAIEGMNGQDLDGRSITVNEAQSRGSGGGGGHRGGGGGGYRSGGGGGYSGGGGSYGGGGGRREGGGGYSGGGGGYSSRGGGGGSYGGGRREGGGGYGGGEGGGYGGSGGGGGW
